# Results as given in the supplement of paper PMC8256030.
# Where “and” joins values, the source holds several entries; their conditions need not be identical. Equal entries are not always repeated. Some of the results follow. Repeats in this data set agree poorly, so a single value says little.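 HEK293T cells were given each compound shortly before transfection with a reporter in which red mCherry is followed by the SARS-CoV-2 frameshift element and then GFP in the −1 frame, so GFP appears only after frameshifting.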
# Tested on: HEK293T
# Assay: percent viability (nuclei count) relative to control; higher = more viable cells
# Details: 10 µM; 24 h
row,Structure (SMILES),percent viability
1,CC(C)(C)NC[C@H](O)c1ccc(O)c(CO)c1 [levosalbutamol],124%
2,CCCc1ncc(C[n+]2ccccc2C)c(N)n1,362%
3,CO[C@@]1(NC(=O)CSCC#N)C(=O)N2C(C(=O)O)=C(CSc3nnnn3C)CS[C@@H]21 [cefmetazole],233%
4,Cc1nc2c([nH]1)-c1ccccc1N(C(=O)c1ccc(NC(=O)c3ccccc3-c3ccccc3)cc1)CC2 [conivaptan],283%
5,Cn1c(=O)c2c(ncn2CCN2CCC(c3c[nH]c4ccccc34)CC2)n(C)c1=O [tameridone],222%
6,CC(C)CC(N)=O,143%
7,O=c1oc2cc(O)ccc2s1 [tioxolone],336%
8,CCCCCCCCCCCC(=O)OC[C@@H](O)[C@H]1OC[C@H](O)[C@H]1O [sorbitan laurate],176%
9,N#CC(c1ccc(Cl)cc1)c1c(Cl)cc(-n2ncc(=O)[nH]c2=O)cc1Cl (stereo unspecified) [diclazuril],157%
10,CS(=O)(=O)c1ccc(C2=C(c3ccccc3)C(=O)OC2)cc1 [rofecoxib],142% and 266%
11,CCCCC[C@H](O)CC[C@@H]1[C@H]2Cc3cccc(OCC(=O)O)c3C[C@H]2C[C@H]1O [treprostinil],144%
12,Cc1ncc(CO)c(C=O)c1O [Pyridoxal],294%
13,CO[C@H]1C[C@H](O[C@@H]2/C(C)=C\C[C@@H]3C[C@@H](C[C@]4(C=C[C@H](C)[C@@H](C(C)C)O4)O3)OC(=O)[C@@H]3C=C(C)[C@@H](O)[C@H]4OC/C(=C/C=C\[C@@H]2C)[C@]43O)O[C@@H](C)[C@H]1O[C@H]1C[C@@H](OC)[C@H](NC(C)=O)[C@H](C)O1,302%
14,NC12CC3CC(CC(C3)C1)C2,101%
15,CN(CCc1ccccc1)CCc1ccccc1 [demelverine],192%
16,CC(=O)[C@@]12O[C@](C)(c3ccccc3)O[C@@H]1C[C@H]1[C@@H]3CCC4=CC(=O)CC[C@]4(C)[C@H]3CC[C@@]12C,300%
17,NC(=O)c1cc[n+](CC2=C(C(=O)[O-])N3C(=O)[C@@H](NC(=O)Cc4cccs4)[C@H]3SC2)cc1,245%
18,CC(C)(Oc1ccccc1)C(=O)OCCN1CCOCC1 [promolate],278%

row,Structure (SMILES),percent viability
1,Cn1cnc2c1c(=O)[nH]c(=O)n2C,368%
2,CC[C@H]1OC(=O)[C@H](C)[C@@H](O[C@H]2C[C@@](C)(OC)[C@@H](O)[C@H](C)O2)[C@H](C)[C@@H](O[C@@H]2O[C@H](C)C[C@H](N(C)C)[C@H]2O)[C@](C)(O)C[C@@H](C)C(=O)[C@H](C)[C@@H](O)[C@H]1C [berythromycin],159%
3,CCOC(=O)[C@H](CCc1ccccc1)N[C@@H](C)C(=O)N1[C@H](C(=O)O)C[C@@H]2CCC[C@@H]21 [ramipril],154% and 179%
4,O=C1C(=O)c2ccccc2C(O)=C1C1CCC(c2ccc(Cl)cc2)CC1 (stereo unspecified),167%
5,COc1ccc(/C=C/C(=O)Nc2ccccc2C(=O)O)cc1OC,138%
6,CC(Cc1ccccc1)NN (stereo unspecified) [pheniprazine],143%
7,CC(=O)/N=c1/sc(S(N)(=O)=O)nn1C [methazolamide],139%
8,N#Cc1ccc2[nH]cc(CCCCN3CCN(c4ccc5oc(C(N)=O)cc5c4)CC3)c2c1,383%
9,N=c1nc(N2CCCCC2)cc(N)n1O [minoxidil],308% and 247%
10,CC(=O)Nc1ccc(CC(=O)O)cc1 [actarit],349% and 223%
11,CC(=O)NS(=O)(=O)c1ccc(NC(=O)c2ccccc2C(=O)O)cc1,213%
12,CC(C)(CO)C(O)C(=O)NCCCO (stereo unspecified) [panthenol],280%
13,CC[C@H]1OC(=O)[C@H](C)[C@@H](O[C@H]2C[C@@](C)(OC)[C@@H](O)[C@H](C)O2)[C@H](C)[C@@H](O[C@@H]2O[C@H](C)C[C@H](N(C)C)[C@H]2O)[C@](C)(O)C[C@@H](C)CN(C)[C@H](C)[C@@H](O)[C@]1(C)O [Azithromycin],195%
14,O=C(O)COc1ccc(C(=O)/C=C/c2ccc(C(=O)O)cc2)cc1 [cinfenoac],109%
15,CN(C(=O)CN(CCO)CC(=O)N(C)C(C)(C)Cc1ccccc1)C(C)(C)Cc1ccccc1 [oxetacaine],310%
16,OCC(O)CN1CCN(c2ccccc2)CC1 (stereo unspecified) [dropropizine],324%
17,CN(C)CC(c1ccc(O)cc1)C1(O)CCCCC1 (stereo unspecified) [desvenlafaxine],152%
18,CC[C@H](C)C(=O)O[C@H]1C[C@H](O)C=C2C=C[C@H](C)[C@H](CC[C@@H](O)C[C@@H](O)CC(=O)O)[C@H]21,298%

# 3 compounds from above, arranged by length of the SMILES, ascending:
row,Structure (SMILES),percent viability
6,CC(C)CC(N)=O,143%
9,N=c1nc(N2CCCCC2)cc(N)n1O [minoxidil],308% and 247%
3,CCOC(=O)[C@H](CCc1ccccc1)N[C@@H](C)C(=O)N1[C@H](C(=O)O)C[C@@H]2CCC[C@@H]21 [ramipril],154% and 179%
